Data reported in PubChem BioAssay AID504834 (National Center for Advancing Translational Sciences (NCATS), 2011).
The campaign covered roughly 320,000 compounds. About 22,000 (6.9%) were called active. Inconclusive results, whose numbers are uncertain, are shown with a selection of clear calls. The call rests on the fitted dose curve; in most records, active means well fitted inhibition curve with a large enough effect; inconclusive means small, poorly fitted or top-dose-only effect, or another doubt; inactive means no such curve, though single readings can be large or run the other way. A potency beside an inconclusive call is a rough fit, not a confirmed value.

Assay: Primary qHTS for delayed death inhibitors of the malarial parasite plastid, 96 hour incubation
Conditions: P. falciparum luciferase reporter growth; series mostly up to 28.7 µM; activity change, negative = inhibition: at the top concentration
In short: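 Erythrocytes infected with luciferase-expressing P. falciparum were dispensed at 2% hematocrit and 0.05% parasitemia (final), then incubated with compounds 96 hours at 37 C in 5% CO2. Luminescence after detection reagent addition reported growth.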
On the % scale 0 is the no-effect control and ±100 the full control effect; potency means the concentration at half of the fitted maximal effect.

Compound	Potency	activity change, negative = inhibition
CCOc1ccc(N2CC(C(=O)Nc3ccc(S(=O)(=O)NCC4CCCO4)cc3)CC2=O)cc1 (configuration not stated)	inconclusive: 10.4 µM [inhibitor, partial curve, poor fit]	
CC(C)C(C)NC(=O)COc1nc2ccccc2nc1N(C)C1CCCCC1 (configuration not stated)	inconclusive: 13.1 µM [inhibitor, single point]	
COC(=O)c1ccc(Cn2cc(C(F)(F)F)ccc2=O)cc1	inconclusive: 1.04 µM [inhibitor, partial curve, poor fit]	
c1ccc2c(Nc3nc(N4CCOCC4)c4ccccc4n3)cccc2c1	inconclusive: 18.5 µM [inhibitor, single point]	
O=C(Nc1ccc(S(=O)(=O)Nc2nccs2)cc1)c1cnc(Cl)c(Cl)c1	inconclusive: 7.38 µM [inhibitor, partial curve]	
Cc1cccc(CC(=O)N2CCN=C2SCc2ccc([N+](=O)[O-])cc2)c1	inconclusive: 6.57 µM [inhibitor, single point]	
Nc1nccc(-c2ccc(-n3cnc4ccccc43)cc2)n1		inactive: 8.91%
COc1cc(C(=O)NC(=S)Nc2ccc3c(c2)C(=O)N(C)C3=O)cc(OC)c1OC		inactive: 5.76%
CC(C)c1cc(=O)n2[nH]c(N)nc2n1		inactive: 18.2%
Cc1ccc2nc(Nc3nc(C)cc(-c4ccccc4)n3)[nH]c(=O)c2c1	active: 6.57 µM	
CCn1cc([N+](=O)[O-])c(C(=O)N2N=C(c3ccc4ccccc4c3)CC2c2ccccc2O)n1 (configuration not stated)	inconclusive: 8.28 µM [inhibitor, partial curve, poor fit]	
COc1cc(/C=N/NC(=O)c2ccc(-c3ccccc3)cc2)cc(OC)c1OC	active: 16.5 µM	
O=C(Nc1ccccn1)c1ccc(Cl)c(S(=O)(=O)N2CCCCCC2)c1		inactive: 35.9%
CC(=O)N1CCN(C(=O)c2ccc(-n3c(C)ccc3C)cc2)CC1	inconclusive: 18.5 µM [inhibitor, single point]	
Cc1cnc(NC(=O)Cc2c[nH]c3ccccc23)s1	inconclusive: 18.5 µM [inhibitor, single point]	
COc1ccccc1CNC(=O)CCNS(=O)(=O)c1ccc2c(c1)oc(=O)n2C	inconclusive: 13.1 µM [inhibitor, single point]	
COc1ccc(-c2noc(C)c2-c2ccc3ccccc3n2)c(O)c1	active: 14.7 µM	
COc1cc(-c2ncc3ccccn23)cc(OC)c1OC	inconclusive: 0.0657 µM [inhibitor, full curve, poor fit]	
CC1(C)Cc2c(sc(NC(=O)c3ccc(C(=O)c4ccccc4)cc3)c2C#N)C(C)(C)N1	inconclusive: 11.7 µM [inhibitor, single point]	
COc1ccccc1C1CCN(C(=O)c2cnn(-c3ccccc3)c2C)CC1	inconclusive: 11.7 µM [inhibitor, single point]	
COc1ccc(C(=O)C2CCCN(C(=O)c3ccc4cc[nH]c4c3)C2)c(C)c1 (configuration not stated)	inconclusive: 18.5 µM [inhibitor, single point]	
C#CCOCCOCCOCCNc1nc(N2CCN(C(=O)CCCCCCCCCCNC(=O)[C@H](CCCCN)n3cc(CCCC(=O)O)nn3)CC2)nc(N2CCN(C(=O)CCCCCCCCCCNC(=O)[C@@H]([C@H](C)O)n3cc(C)nn3)CC2)n1	active: 5.86 µM	
Cc1cc2c(c(=O)n1Cc1ccco1)C(c1cccnc1)C(C#N)=C(N)O2 (configuration not stated)	active: 9.28 µM	

Compound	Potency	activity change, negative = inhibition
CCOC(=O)c1cccc(NC(=O)COc2ccc([N+](=O)[O-])cc2)c1	inconclusive: 9.28 µM [inhibitor, single point]	
CC(=O)Oc1c(C)cc(Cl)cc1C(=O)Nc1ccc([N+](=O)[O-])cc1Cl		inactive: 30.7%
Cc1ccc(Nc2ccc(C(=O)O)cc2N)cc1	inconclusive: 0.0928 µM [inhibitor, partial curve, poor fit]	
COc1ccc(-c2nnc(SCC(=O)NC3CCCC3)n2C)cc1	inconclusive: 10.4 µM [inhibitor, partial curve, poor fit]	
CCC(=NCc1cccnc1)c1c(O)n(C2CCCCC2)c(=O)[nH]c1=O	inconclusive: 5.86 µM [inhibitor, partial curve, poor fit]	
NCC(=O)NCC(=O)OCc1ccccc1		inactive: 1.93%
CCNC(=O)O/N=C1\CCCCC1c1ccc([N+](=O)[O-])cc1[N+](=O)[O-] (configuration not stated)	inconclusive: 13.1 µM [inhibitor, partial curve, poor fit]	
COc1cccc(NC(=O)CNc2cc(S(=O)(=O)N3CCOCC3)ccc2N2CCCC2)c1	inconclusive: 6.57 µM [inhibitor, partial curve, poor fit]	
C=CC(C)N1C(=O)S/C(=C\c2ccc(N3CCOCC3)cc2C)C1=O (configuration not stated)	inconclusive: 10.4 µM [inhibitor, single point]	
Cc1c(C(=O)O/N=C(\N)c2ccccn2)cccc1[N+](=O)[O-]	inconclusive: 18.5 µM [inhibitor, single point]	
CN(C(=O)c1cc(COc2c(F)cccc2F)on1)C1CCOC1 (configuration not stated)		inactive: 3.23%
Cc1c(C)n(CCc2ccccc2)c2ncnc(NCCCO)c12		inactive: 80.4%
CCOC(=O)c1c(N/N=C/c2cccnc2)n[nH]c1C		inactive: 43.5%
CCC(C)Nc1nc(N)c([N+](=O)[O-])c(NCCO)n1 (configuration not stated)	inconclusive: 0.465 µM [inhibitor, full curve]	
COc1ccc(CN(C)C(=O)c2cc(S(=O)(=O)N3CCOCC3)ccc2N2CCCC2)cc1	inconclusive: 7.38 µM [inhibitor, partial curve, poor fit]	
CC(=O)c1ccc(S(=O)(=O)N2Cc3ccccc3CC2C(=O)O)cc1 (configuration not stated)	inconclusive: 0.0029 µM [inhibitor, full curve, poor fit]	
CCc1nnc(NC(=O)c2cc(-c3ccccn3)nc3ccc(Br)cc23)s1	inconclusive: 10.4 µM [inhibitor, single point]	
CCc1nc(NC(=O)Cc2csc(C)n2)sc1C(=O)OC		inactive: 5.88%
O=C(Nc1ccccc1)c1cccnc1N1CCOCC1		inactive: -1.76%
Cc1cccc(CN2CCC(Oc3ccc(C(=O)N4CCCC4)cc3)CC2)n1	active: 2.33 µM	
O=c1c2c(-c3cccs3)csc2ncn1-c1ccc(Br)cc1	inconclusive: 18.5 µM [inhibitor, single point]	
Cc1nn(Cc2ccc(Cl)cc2)c(C)c1NC(=O)c1cc(-c2ccc3c(c2)OCO3)on1	inconclusive: 11.7 µM [inhibitor, single point]	
CC(C)OC(=O)CC1C(=O)NCCN1C(=S)NC(=O)c1ccccc1Cl (configuration not stated)	inconclusive: 10.4 µM [inhibitor, single point]	

A draw from above in order of length of the SMILES, descending:
Compound	Potency	activity change, negative = inhibition
Cc1c(C)n(CCc2ccccc2)c2ncnc(NCCCO)c12		inactive: 80.4%
CCOC(=O)c1c(N/N=C/c2cccnc2)n[nH]c1C		inactive: 43.5%
Cc1ccc(Nc2ccc(C(=O)O)cc2N)cc1	inconclusive: 0.0928 µM [inhibitor, partial curve, poor fit]	

Next results follow:

Compound	Potency	activity change, negative = inhibition
Cc1csc(NC(=S)NC(=O)c2ccccc2)n1		inactive: 75.5%
CC1(C)Cc2c(c(N3CCOCC3)nc3sc4c(N5CCOCC5)nnnc4c23)CS1	inconclusive: 0.37 µM [inhibitor, full curve, poor fit]	
Cc1ccc(C(=O)N/C(=C\c2ccc(-c3cccc([N+](=O)[O-])c3)o2)C(=O)NCCCN2CCOCC2)cc1	inconclusive: 18.5 µM [inhibitor, single point]	
CC(=O)Nc1ccc(NC(=O)c2nc(S(=O)(=O)Cc3ccccc3)ncc2Cl)cc1	inconclusive: 10.4 µM [inhibitor, single point]	
N=c1c(S(=O)(=O)c2ccc(Br)cc2)cc2c(=O)n3ccccc3nc2n1C1CCCCC1	active: 3.7 µM	
CCCSc1nc(=O)n2cc(C)ccc2n1	inconclusive: 1.47 µM [inhibitor, single point]	
Cc1[nH][nH]c(=O)c1C(c1ccc(-c2cccc(Cl)c2)o1)c1c(C)[nH][nH]c1=O	inconclusive: 14.7 µM [inhibitor, single point]	
COc1ccc(C(=O)Nc2ccc(S(=O)(=O)Nc3nccnc3OC)cc2)cc1	inconclusive: 18.5 µM [inhibitor, single point]	
Oc1ccc(Cl)cc1CNc1cnc2ccccc2c1	active: 2.62 µM	
CCc1nc(SCc2ccccc2C)n[nH]1	active: 6.57 µM	
O=C(NCc1ccccn1)C(=O)Nc1nc(C23CC4CC(CC(C4)C2)C3)cs1		inactive: 17.5%
Cn1cccc1C(=S)N=P(C1CCCCC1)(N1CCOCC1)N1CCOCC1	active: 8.28 µM	
O=C(N/N=C/c1c(Nc2cccc(C(F)(F)F)c2)nc2ccccn2c1=O)c1ccccc1[N+](=O)[O-]	inconclusive: 11.7 µM [inhibitor, partial curve, poor fit]	
CC(c1ccc2c(c1)OCO2)n1c(=S)[nH]c2ccccc2c1=O (configuration not stated)	inconclusive: 18.5 µM [inhibitor, single point]	
Cc1nn(Cc2ccc(F)cc2)c(C)c1NC(=O)c1cnn2c1NC(c1ccccc1)CC2C(F)(F)F (configuration not stated)	inconclusive: 18.5 µM [inhibitor, single point]	
O=P(CCC(F)(F)F)(CCC(F)(F)F)CCC(F)(F)F		inactive: -10.3%
O=C(CSc1n[nH]c(-c2cccnc2)n1)Nc1ccccc1	inconclusive: 14.7 µM [inhibitor, single point]	
COc1ccc(C(CNC(=O)CNC(=O)c2cccc(Cl)c2)N2CCCC2)cc1 (configuration not stated)	inconclusive: 13.1 µM [inhibitor, single point]	
Cc1cccc(Cc2cnc(NC(=O)CN3C(=O)/C(=C/c4ccccc4)SC3=S)s2)c1	inconclusive: 18.5 µM [inhibitor, single point]	
Cc1oc2c(c1C(=O)NCCO)CCCC2	active: 0.0131 µM	
O=C(CN(Cc1ccccc1Cl)C(=O)c1csnn1)NCc1ccccc1	inconclusive: 10.4 µM [inhibitor, single point]	
